This note sets out measurements from PubChem BioAssay AID286 (DTP/NCI, 2004).

The list does not hold the whole screen: it is rich in T/C values a quarter to a half above the control, in often repeated tests (any T/C) and in doses without a T/C. Other doses and runs of a compound stand elsewhere. T/C: endpoint of the treated group in % of that of the vehicle group. Some entries give survivors of the animals treated and no T/C: the source files T/C as zero there, which appears to mark a toxic dose or a test without result, not a measured value. Some survivor counts are full or nearly so, which does not show that the dose was tolerated: survival well below the control is almost never listed, so the zero probably covers shortened survival too. Counts of survivors are from the toxicity check (mostly the fifth day) where no day follows; animals may have died later. Schedules are NCI's codes, read here as Q, the interval in days (D) or hours (H), X, the number of doses. Some entries were tested several times; the values are given in rising order. For survival time, this PubChem deposit counts one and a half times the control or more as active, and values a quarter to a half above the control carry no call in these data; other NCI protocols may use other cut-offs. Some T/C values carry the count of animals alive at the toxicity check (mostly the fifth day); without a count, all were alive then. Marks such as (2×) say how often a value occurs here.

This test deals with BDF1 mice, M5076 sarcoma ip, median survival T/C. Description: NCI In Vivo Anticancer Drug Screen. Data for tumor model Sarcoma M5076 (intraperitoneal) in B6D2F1 (BDF1) mice. The note with it: T/C endpoint: median survival time, higher T/C = longer survival. How it is done: The antitumor activity of compounds was measured in mice bearing transplantable tumors. Survival or tumor size were measured and the results are expressed as the measurement made in the treated group (T) divided by the measurement made in the vehicle treated control group (C). The tumor model used in this assay is Sarcoma M5076 (intraperitoneal) in B6D2F1 (BDF1) mice

[1] abbreviates: dose: 60.0 mg/kg/injection, schedule: Q04DX005 (ip), vehicle: saline.
The mark [2] stands for this setting: dose: 100.0 mg/kg/injection, schedule: Q04DX005 (ip), vehicle: saline.
Setting [3] is: dose: 120.0 mg/kg/injection, schedule: Q04DX004 (ip), vehicle: saline.
[4] abbreviates: dose: 120.0 mg/kg/injection, schedule: Q04DX005 (ip), vehicle: saline.
Setting [5] is: dose: 12.0 mg/kg/injection, schedule: Q04DX005 (ip), vehicle: Klucel (hydroxypropylcellulose) (HPC).
Setting [6] is: dose: 1.0 mg/kg/injection, schedule: Q04DX004 (ip), vehicle: saline.

As to `CC(=O)/C(=C\c1ccc(Cl)c(Cl)c1)C(=O)CCN(C)C`, the survivor count (dose: 200.0 mg/kg/injection, schedule: Q04DX004 (ip), vehicle: saline) is on record as 0 of 10 on day 14.
With `O=c1[nH]cc(F)c(=O)[nH]1`, the T/C is, setting by setting: (dose: 13.0 mg/kg/injection, schedule: Q04DX004 (ip), vehicle: saline) 135 % of control; (dose: 15.0 mg/kg/injection, schedule: Q04DX004 (ip), vehicle: saline) 103, 109, 111, 116 % of control; (dose: 15.0 mg/kg/injection, schedule: Q04DX005 (ip), vehicle: saline) 104, 115, 116, 125 % of control; (dose: 24.0 mg/kg/injection, schedule: Q01DX009 (ip), vehicle: saline) 127 % of control; (dose: 30.0 mg/kg/injection, schedule: Q04DX004 (ip), vehicle: saline) 107 [9 of 10 alive on day 9], 109, 111, 122 % of control; (dose: 30.0 mg/kg/injection, schedule: Q04DX005 (ip), vehicle: saline) 108, 113, 120, 125 % of control. The T/C is, setting by setting: (dose: 36.0 mg/kg/injection, schedule: Q01DX009 (ip), vehicle: saline) 132 % of control; (dose: 36.0 mg/kg/injection, schedule: Q04DX004 (ip), vehicle: saline) 136 % of control [8 of 9 alive]; (dose: 50.0 mg/kg/injection, schedule: Q04DX005 (ip), vehicle: saline) 148 % of control; (dose: 60.0 mg/kg/injection, schedule: Q04DX004 (ip), vehicle: saline, evaluated on day 5) 141 % of control; (dose: 60.0 mg/kg/injection, schedule: Q04DX004 (ip), vehicle: saline, evaluated on day 75) 122, 127, 130, 133 % of control; under setting [1], 128 (2×) and 130 % of control [9 of 10 alive on day 9]. For the same compound, the T/C was 144 % of control under setting [3] and 148 % of control under setting [4]. The survivor count by setting is: under setting [1], 10 of 10 on day 9; under setting [2], 10 of 10; under setting [3], 5 of 10 on day 9, 9 of 10 on day 9, 10 of 10 on day 9; under setting [4], 6 of 10 on day 9, 9 of 10 on day 9, 8 of 8 on day 9.
With `O=c1n(CC2CO2)c(=O)n(CC2CO2)c(=O)n1CC1CO1` (stereo not drawn), under setting [2], the survivor count is on record as 0 of 10 on day 17.
Regarding `Nc1nc(=S)c2[nH]cnc2[nH]1`, the T/C was 141 % of control (dose: 1.0 mg/kg/injection, schedule: Q04DX005 (ip), vehicle: alkali diluted with saline); 108, 120, 121, 129 % of control (dose: 1.5 mg/kg/injection, schedule: Q04DX004 (ip), vehicle: Klucel (hydroxypropylcellulose) (HPC)); 109, 119, 126, 132 % of control (dose: 1.5 mg/kg/injection, schedule: Q04DX005 (ip), vehicle: Klucel (hydroxypropylcellulose) (HPC)); 132 % of control (dose: 1.5 mg/kg/injection, schedule: Q04DX005 (ip), vehicle: alkali diluted with saline); 100, 116, 123, 129 % of control (dose: 3.0 mg/kg/injection, schedule: Q04DX004 (ip), vehicle: Klucel (hydroxypropylcellulose) (HPC)); 118, 125, 132, 149 % of control (dose: 3.0 mg/kg/injection, schedule: Q04DX005 (ip), vehicle: Klucel (hydroxypropylcellulose) (HPC)). Further, the T/C runs as follows: (dose: 3.0 mg/kg/injection, schedule: Q04DX005 (ip), vehicle: alkali diluted with saline) 143 % of control; (dose: 4.0 mg/kg/injection, schedule: Q04DX005 (ip), vehicle: alkali diluted with saline) 127 % of control; (dose: 6.0 mg/kg/injection, schedule: Q04DX004 (ip), vehicle: Klucel (hydroxypropylcellulose) (HPC)) 124 [8 of 9 alive on day 9], 127, 131, 138 % of control; (dose: 6.0 mg/kg/injection, schedule: Q04DX005 (ip), vehicle: Klucel (hydroxypropylcellulose) (HPC)) 101, 127, 142, 156 % of control; (dose: 12.0 mg/kg/injection, schedule: Q04DX004 (ip), vehicle: Klucel (hydroxypropylcellulose) (HPC)) 119, 138, 141, 144 % of control; under setting [5], 95 and 144 % of control. Further, the survivor count was 10 of 10 (dose: 8.0 mg/kg/injection, schedule: Q04DX005 (ip), vehicle: alkali diluted with saline); 10 of 10 on day 9 under setting [5]; 1 of 8 on day 17 (dose: 12.0 mg/kg/injection, schedule: Q04DX005 (ip), vehicle: alkali diluted with saline).
For the compound `COc1cccc2c1C(=O)c1c(O)c3c(c(O)c1C2=O)C[C@@](O)(C(=O)CO)C[C@@H]3OC1CC(N)C(O)C(C)O1` (stereo partly drawn), under setting [6], the T/C is 134 % of control. In addition, the survivor count is 2 of 8 on day 17 (dose: 8.0 mg/kg/injection, schedule: Q04DX005 (ip), vehicle: saline) and 0 of 10 on day 14 (dose: 16.0 mg/kg/injection, schedule: Q04DX004 (ip), vehicle: saline).
Turning to `COC(=O)[C@@]12OC[C@]34[C@H]([C@@H](O)[C@@H]1O)[C@@]1(C)CC(=O)C(O)=C(C)[C@@H]1C[C@H]3OC(=O)[C@H](OC(=O)/C=C(\C)C(C)C)[C@@H]24`, the T/C by setting is: (dose: 0.25 mg/kg/injection, schedule: Q04DX004 (ip), vehicle: saline) 95, 103, 113, 119, 120 % of control; (dose: 0.25 mg/kg/injection, schedule: Q04DX005 (ip), vehicle: saline) 98, 105, 110, 121, 124 % of control; (dose: 0.5 mg/kg/injection, schedule: Q04DX004 (ip), vehicle: saline) 105, 114, 122, 124, 162 % of control; (dose: 0.5 mg/kg/injection, schedule: Q04DX005 (ip), vehicle: saline) 103, 108, 118, 124 [9 of 10 alive on day 9], 129 % of control; under setting [6], 99, 103, 112, 125, 134 % of control; (dose: 1.0 mg/kg/injection, schedule: Q04DX005 (ip), vehicle: saline) 96, 97 [9 of 10 alive on day 9], 131, 139, 140 % of control. The T/C is, setting by setting: (dose: 2.0 mg/kg/injection, schedule: Q04DX004 (ip), vehicle: saline) 99 [8 of 10 alive on day 9], 118, 145, 147, 156 % of control; (dose: 2.0 mg/kg/injection, schedule: Q04DX005 (ip), vehicle: saline) 113, 117, 131, 144, 156 % of control.
Turning to `CCN(CC)CCNc1ccc(C)c2sc3ccccc3c(=O)c12`, the T/C (dose: 80.0 mg/kg/injection, schedule: Q04DX004 (ip), vehicle: water) was 125 % of control.
Turning to `CCC(C)C(N)C(=O)NC(CC(N)=O)C(=O)NC(CC(C)C)C(=O)NC(CCCCN)C(=O)NC(C)C(=O)NC(CC(C)C)C(=O)NC(C)C(=O)NC(C)C(=O)NC(CC(C)C)C(=O)NC(C)C(=O)NC(CCCCN)C(=O)NC(CCCCN)C(=O)NC(C(=O)NC(CC(C)C)C(N)=O)C(C)CC` (stereo not drawn), the survivor count (dose: 25.0 mg/kg/injection, schedule: Q01DX009 (ip), vehicle: Klucel (hydroxypropylcellulose) (HPC)) was 0 of 10 on day 9.
For `CC(=O)N(C)c1ccc(Nc2cc(C)[nH]c3ccc4ncnc4c23)cc1`, the T/C (dose: 10.0 mg/kg/injection, schedule: Q04DX004 (ip), vehicle: saline) is 125 % of control; the T/C (dose: 20.0 mg/kg/injection, schedule: Q04DX004 (ip), vehicle: saline) was 138 % of control; the T/C (dose: 40.0 mg/kg/injection, schedule: Q04DX004 (ip), vehicle: saline) is 133 % of control; the T/C (dose: 80.0 mg/kg/injection, schedule: Q04DX004 (ip), vehicle: saline) was 139 % of control. The survivor count (dose: 160.0 mg/kg/injection, schedule: Q04DX004 (ip), vehicle: saline) was 1 of 8 on day 9.
